PubChem BioAssay AID652272 – Drosophila RNAi Screening Center, 2013

- Assay: 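Genes whose knock-down decreases or increases Hedgehog reporter output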 (primary screen)
- System: Drosophila clone 8 (Cl8) cells
- Reagent: long dsRNA against Drosophila genes
- Measurement: 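Plate reader light from a firefly reporter under a ptc promoter fragment that responds to Hedgehog, with Renilla light as transfection reference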
- Reading the numbers: firefly Hh reporter signal: higher = more ptc reporter light; Renilla reference signal: higher = more Renilla control light
- Rule for the call: 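Called a hit if the two-replicate mean z-score lies below -2 or above +3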
- Calls: active = hit: reporter lowered or raised; inactive = not a hit
In all, the deposit lists about 21,000 reagents; this is an unselected part of those that have a named target and a result. In the full data, 503 (2.4%) are marked active. 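Raw plate light values, not normalised; calls rest on replicate z-scores that were not deposited; hits include reporter decreases as well as increases.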 Names joined by + are all predicted targets of the reagent. The record does not give: the amount of reagent, the time to read-out.

predicted target | amplicon | firefly Hh reporter signal, replicate 1 | firefly Hh reporter signal, replicate 2 | firefly Hh reporter signal, replicate 3 | Renilla reference signal, replicate 1 | Renilla reference signal, replicate 2 | call
RpL10Ab | DRSC10798 | 45298 | 24800 | 22727 | 6378 | 2826 | active
Osi6 | DRSC12128 | 68972 | 94467 | – | 3523 | 3270 | inactive
Nprl2 | DRSC20153 | 81579 | 67338 | – | 1683 | 1590 | inactive
ChAT | DRSC13314 | 56470 | 2.89e5 | – | 11656 | 5563 | inactive
ChAT | DRSC16609 | 5.91e5 | 1.06e5 | – | 30039 | 2464 | inactive
CG14861 | DRSC14984 | 60708 | 90263 | – | 1670 | 2513 | inactive
CG6800 | DRSC16119 | 8.21e5 | 1.58e5 | – | 37723 | 3244 | inactive
5PtaseI | DRSC16269 | 87568 | 1.16e5 | – | 3525 | 4164 | inactive
CG9254 | DRSC01969 | 1.31e5 | 48423 | – | 3504 | 4758 | inactive
c11.1 | DRSC18749 | 54310 | 1.78e5 | – | 1322 | 6028 | inactive
Dlish | DRSC06016 | 1.45e5 | 58465 | – | 3765 | 3943 | inactive
Ag5r | DRSC19327 | 1.12e5 | 60200 | – | 2723 | 1571 | inactive
CG2006 | DRSC15412 | 1.49e5 | 98715 | – | 3771 | 2832 | inactive
CG5114 | DRSC10482 | 1.05e5 | 84966 | – | 4282 | 3717 | inactive
elm | DRSC12309 | 1.35e5 | 87609 | – | 4749 | 3456 | inactive
CG43335 | DRSC15764 | 67072 | 1.26e5 | – | 1940 | 2987 | inactive
Uev1A | DRSC09763 | 1.74e5 | 1.08e5 | – | 6899 | 4361 | inactive
smal | DRSC02318 | 2.00e5 | 5.11e5 | 72450 | 4365 | 29835 | inactive
smal | DRSC02319 | 1.05e5 | 43050 | – | 2672 | 5733 | inactive
smal | DRSC02320 | 1.22e5 | 61888 | – | 3184 | 5601 | inactive
smal | DRSC02504 | 1.03e5 | 55506 | – | 3223 | 5592 | inactive
dUTPase | DRSC01998 | 1.76e5 | 1.41e5 | – | 7912 | 6360 | inactive
Tusp | DRSC15838 | 76642 | 98476 | – | 1785 | 2568 | inactive
CG8617 | DRSC07223 | 73217 | 50293 | – | 1665 | 3989 | inactive
CG13748 | DRSC06419 | 76016 | 37430 | – | 1661 | 3224 | inactive
TwdlW | DRSC15540 | 66964 | 56947 | – | 1419 | 4343 | inactive
Ir67a | DRSC09897 | 45203 | 34250 | 54391 | 3570 | 4049 | inactive
CG7049 | DRSC08587 | 1.21e5 | 66754 | – | 5175 | 2813 | inactive
Svil | DRSC07981 | 83744 | 1.66e5 | – | 3046 | 8139 | inactive
Svil | DRSC08296 | 59190 | 38120 | – | 4096 | 2418 | active
Svil | DRSC08332 | 1.05e5 | 41837 | – | 3009 | 2934 | inactive
Svil | DRSC08333 | 37224 | 9901 | – | 1224 | 800 | inactive
Svil | DRSC08494 | 73387 | 62722 | – | 2332 | 3882 | inactive
ltl | DRSC10206 | 59963 | 40873 | – | 6377 | 3281 | inactive
ltl | DRSC10870 | 47364 | 34333 | – | 6195 | 2368 | inactive
CG30016 | DRSC05242 | 1.21e5 | 1.88e5 | – | 3264 | 7900 | inactive
CG14062 | DRSC14725 | 84422 | 91659 | – | 3090 | 2352 | inactive
pps | DRSC16057 | 98377 | 1.27e5 | – | 2023 | 1801 | inactive
CG4546 | DRSC15593 | 1.02e5 | 1.03e5 | – | 1584 | 2355 | inactive
CG7102 | DRSC02647 | 1.61e5 | 66166 | – | 5494 | 3043 | inactive
CG7102 | DRSC03007 | 97713 | 63832 | – | 2435 | 5008 | inactive
Mks1 | DRSC19697 | 95833 | 1.63e5 | – | 2776 | 7584 | inactive
Menl-2 + Menl-1 | DRSC07469 | 1.25e5 | 76997 | – | 3692 | 6162 | inactive
Menl-2 + Menl-1 | DRSC07470 | 96401 | 55268 | – | 3003 | 4088 | inactive
PGAP2 | DRSC00632 | 49562 | 42982 | – | 2624 | 2274 | inactive
mei-S332 | DRSC04704 | 63811 | 71158 | – | 2762 | 2999 | inactive
CG6362 | DRSC07413 | 72518 | 65699 | – | 1320 | 4850 | inactive
CG17780 + CG17781 | DRSC15266 | 5.55e5 | 83008 | – | 26464 | 2853 | inactive
CG42807 | DRSC06966 | 77271 | 63195 | – | 1828 | 4736 | inactive
CG31683 + CG18858 | DRSC02703 | 1.12e5 | 63368 | – | 2960 | 5992 | inactive
CG2698 | DRSC15447 | 72577 | 1.60e5 | – | 2900 | 4472 | inactive
Octbeta1R | DRSC16134 | 6.07e5 | 1.61e5 | – | 37824 | 423 | inactive
CG3984 | DRSC15530 | 1.65e5 | 1.55e5 | – | 6235 | 4459 | inactive
Pgant1 | DRSC07095 | 1.01e5 | 37205 | – | 2745 | 2044 | inactive
COX6AL2 | DRSC10082 | 81170 | 1.30e5 | – | 2628 | 3603 | inactive
brun | DRSC02706 | 1.02e5 | 46356 | – | 3465 | 1136 | inactive
Git | DRSC06620 | 69397 | 36644 | – | 2452 | 1488 | inactive

In a second layout: results already given
| predicted target | amplicon | firefly Hh reporter signal, replicate 1 | firefly Hh reporter signal, replicate 2 | firefly Hh reporter signal, replicate 3 | Renilla reference signal, replicate 1 | Renilla reference signal, replicate 2 | call |
| --- | --- | --- | --- | --- | --- | --- | --- |
| CG14062 | DRSC14725 | 84422 | 91659 | – | 3090 | 2352 | inactive |
| pps | DRSC16057 | 98377 | 1.27e5 | – | 2023 | 1801 | inactive |
| CG4546 | DRSC15593 | 1.02e5 | 1.03e5 | – | 1584 | 2355 | inactive |
| CG7102 | DRSC02647 | 1.61e5 | 66166 | – | 5494 | 3043 | inactive |
| CG7102 | DRSC03007 | 97713 | 63832 | – | 2435 | 5008 | inactive |
